From US20110130386A1, “DNA-PK INHIBITORS” (priority 2008, published 2011)
Some results were stated once for a whole list of compounds, not compound by compound.

System: HeLa cells
Assay: Survival Enhancement Ratio (clonogenic survival after 2 Gray irradiation)
Assay type: cell-based, human
Description: The Survival Enhancement Ratio (SER) is a ratio of the enhancement of cell kill elicited by the DNA-PK inhibitor after 2 Grays of irradiation compared to […]. DNA-PK inhibitors were used at a concentration of 25, 50, 100 and/or 500 nM. Radiation was delivered by a Faxitron 43855D machine at a dose rate of 1 Gy pre minute The SER at 2 Gray irradiation was calculated from the formula:
The degree of cell killing was monitored by a standard clonogenic survival assay. Briefly, tissue culture treated 6-well plates were seeded with HeLa cells at an appropriate concentration to give 100-200 colonies per well and returned to the incubator in order to allow the cells to attach. Four hours later, compound or vehicle control was added to the cells. The cells were then incubated for 1 hour in the presence of inhibitor prior to irradiation at 2 Gray using a Faxitron 43855D cabinet X-ray machine. The cells were then incubated for a further 16 hours before the media was replaced with fresh media in the absence of DNA-PK inhibitor. After 8 days, colonies formed were fixed and stained with Giemsa (Sigma, Poole, UK) and scored using an automated colony counter (Oxford Optronics Ltd, Oxford, UK). The data was calculated as described above.

| SMILES | SER (compound at 100 nM) | SER (compound at 50 nM) |
| --- | --- | --- |
| N#CCNCc1ccc(-c2cccc3c(=O)cc(N4CCOCC4)oc23)c2sc3ccccc3c12 [4ar] | ≥ 1.5 |  |
| CN(C)CCN(C)Cc1ccc(-c2cccc3c(=O)cc(N4CCOCC4)oc23)c2sc3ccccc3c12 [4u] | ≥ 1.5 | ≥ 1.5 |
